In PubChem BioAssay AID2685 (National Center for Advancing Translational Sciences (NCATS), 2010) one finds cell number change and AC50 data, which are given here for 59 compounds.

The list shows a part of the results. The main result of the screen is listed elsewhere. These columns were measured beside it and carry no call. Compounds called inactive in the main read-out are mostly missing here. Potencies come from curve fits of mixed quality, noted in brackets.

The assay is described as follows: qHTS Assay for Lipid Storage Modulators in Drosophila S3 Cells.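 As to cell number change: cells counted by Cell Tracker Red CMTPX staining in the red channel.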 The conditions noted are these: BODIPY lipid droplet fluorescence, 18-24 h; for cell number change: measured here: cell count max response, cells fed with added oleic acid. The method, boiled down: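 Drosophila S3 cells got compounds at several concentrations plus oleic acid (400 uM solution). Laser-scanning cytometry with 488 nm excitation read lipid droplets at 500-530 nm and cells at 575-640 nm. Percent activity was relative to 20 uM Triacsin C.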

[1] abbreviates: measured here: lipid fluorescence (Fed channel) AC50, cells fed with added oleic acid.
[2] abbreviates: measured here: cell number channel AC50, cells fed with added oleic acid.

For orientation: AC50 means the concentration at which the activity in the assay is half-maximal. The low end stands for activity at low concentration, the high end for activity only at high concentration. For the compound `Cc1cc(C)cc(Oc2nn[nH]n2)c1`, the cell number change was 23%. Besides, the concentration at half-maximal activity (AC50) under setting [1] is 11.6 µM [rising, partial curve].
In the case of `CSc1ccc(-c2ccco2)nn1`, the cell number change is -2.55%. For the same compound, the AC50 under setting [2] is 6.51 µM [falling, single point]. Also, the AC50 under setting [1] was 6.51 µM [falling, single point].
For the compound `Cc1cc(C)n(-c2nc3c(c(=O)n(C)c(=O)n3C)n2C)n1`, the cell number change worked out at 9.57%. The AC50 under setting [1] was 0.116 µM [falling, full curve, poor fit].
Take `Cc1ccc(OCCOC(=O)Nc2ccccc2)cc1`: the cell number change came out at 29%. Besides, the AC50 under setting [2] is 0.13 µM [rising, full curve, poor fit].
`O=C(c1sc2ccccc2c1Cl)N(Cc1ccccc1Cl)C1CCS(=O)(=O)C1` (stereo unspecified): the cell number change turned out to be 1.15%. In addition, under setting [1], the AC50 was 0.116 µM [rising, full curve, poor fit].
As to `COc1ccccc1-n1cnc2cc(NS(=O)(=O)c3ccccc3)ccc21`, the cell number change is -19.4%. Besides, the AC50 under setting [1] was 0.651 µM [rising, partial curve].
As for `Cc1cc(OCc2cc(C(=O)N3CCN(CC4CC4)CC3)no2)cc(C)c1Cl`, the cell number change is -3.07%. In addition, the AC50 under setting [1] is 29.1 µM [falling, single point].
In the case of `O=C1C=C(c2ccc3ncccc3c2)C[C@@H](c2ccc(F)cc2)C1`, the cell number change is -13%.
Consider `CC(C)C(=O)Nc1ccc(NC(=O)c2ccccn2)cn1`, for which the cell number change was -11.6%. Also, the AC50 under setting [1] is 6.51 µM [falling, single point].
Turning to `Cn1c(C(=O)N2CCN(c3ccc([N+](=O)[O-])cc3)CC2)cc2c(=O)[nH]c3ccccc3c21`, the cell number change was -11.7%. For the same compound, under setting [2], the AC50 was 0.517 µM [falling, full curve, poor fit].
Regarding `Cc1c(C(=O)NCCN2CCOCC2)oc2ccc(S(=O)(=O)N3CCCCCC3)cc12`, the cell number change is -10.5%. Moreover, the AC50 under setting [1] is 0.184 µM [falling, full curve, poor fit].
In the case of `CC1(C)Cc2nc(Cl)c(C(N)=O)cc2CO1`, the cell number change was -13.1%. Moreover, the AC50 under setting [1] is 29.1 µM [falling, single point].
Turning to `COCCN(C(=O)c1ccco1)c1nc(-c2ccccc2)cs1`, the cell number change was -17.2%. Besides, under setting [1], the AC50 is 0.58 µM [falling, single point].
Turning to `COc1cccc(C(=O)CSc2nc3cccnc3n2C)c1`, the cell number change is -43%. Also, the AC50 under setting [2] was 29.1 µM [falling, single point]. Further, the AC50 under setting [1] was 29.1 µM [falling, single point].
For the compound `Oc1ccc(Br)cc1/C=N/NC(=S)NCCc1ccccc1`, the cell number change is -12.6%.
Regarding `Cc1ccc(C)c(CSc2nnc(CCN)o2)c1`, under setting [2], the AC50 was 2.91 µM [falling, partial curve].
As for `Cc1ccc(S(=O)(=O)NCC(=O)OCC(=O)N2CCN(C(=O)c3ccco3)CC2)cc1C`, the cell number change was -15.6%.
The same measure, in the same setting: with `Cc1ccc(C2=NS(=O)(=O)N(C)C(C(=O)NCc3ccc(F)cc3)=C2)cc1` the figure was -0.288%.
Take `COC(=O)c1ccc(NC(=O)Nc2ccc(OC)cc2)cc1`: the cell number change was -39.8%. In addition, under setting [2], the concentration at half-maximal activity (AC50) is 29.1 µM [falling, single point]. Besides, under setting [1], the AC50 was 29.1 µM [falling, single point].
Take `O=C(/C=C/c1cn(-c2ccccc2)nc1-c1ccc2c(c1)OCCO2)NCCO`: the cell number change was -43.4%. In addition, the AC50 under setting [2] was 32.6 µM [falling, single point]. The AC50 under setting [1] is 32.6 µM [falling, partial curve, poor fit].
In the case of `CCc1cccc(NS(=O)(=O)c2c(C)nc3sc(CC)nn3c2=O)c1`, the cell number change was -16.5%.
Consider `COC(=O)C1=NN(N=O)C2(CC(=O)N(c3cc(C)cc(C)c3)C2=O)C1` (stereo unspecified), for which the cell number change was -110%. Moreover, the AC50 under setting [2] was 18.4 µM [falling, single point].
With `COc1ccc([N+](=O)[O-])cc1N(CC(=O)NCc1ccco1)S(C)(=O)=O`, the cell number change was -2.55%. For the same compound, the AC50 under setting [1] is 0.651 µM [rising, partial curve, poor fit].
For `Cc1ccc(-n2c(SCC(=O)N3CCOCC3)nnc2-c2cccnc2)cc1C`, the cell number change came to 0.0585%. Moreover, under setting [1], the AC50 was 29.1 µM [rising, single point].
As for `CC(=O)c1ccc(NC(=O)c2sc3nc(N4CCOCC4)c4c(c3c2N)CCCC4)cc1`, the cell number change is -18.3%. For the same compound, under setting [1], the AC50 is 11.6 µM [falling, single point].
Take `Cc1ccccc1CN(C)CCc1ccccn1`: the cell number change was -37.3%. The AC50 under setting [2] was 32.6 µM [falling, single point].
Take `COCc1nnc(NC(=O)c2cccc(NC(=O)C(C)C)c2)s1`: the cell number change was 3.91%. Moreover, the AC50 under setting [1] is 0.103 µM [rising, full curve, poor fit].
As for `Cc1ccc(-c2cc(C(=O)Nc3cnn(C45CC6CC(CC(C6)C4)C5)c3)no2)cc1`, the cell number change was -54.7%. The concentration at half-maximal activity (AC50) under setting [2] was 18.4 µM [falling, partial curve, poor fit]. Moreover, the AC50 under setting [1] was 32.6 µM [falling, single point].
Regarding `CCOC(=O)c1cccc(NC(=O)CSc2nnc(C3CCCCC3)n2C)c1`, the cell number change was -11.7%.
In the case of `O=C(/C=C/c1c(Cl)cccc1Cl)NCc1ccccc1`, the cell number change is 1.86%. Moreover, the AC50 under setting [2] was 1.64 µM [rising, partial curve]. Moreover, the AC50 under setting [1] was 2.06 µM [rising, full curve].
As to `Fc1cccc(CNc2ncnc3cc(Cl)ccc23)c1F`, the cell number change is -36.5%. For the same compound, the AC50 under setting [2] was 29.1 µM [falling, single point]. In addition, the AC50 under setting [1] was 29.1 µM [falling, single point].
Regarding `COC(=O)c1cc(C(=O)c2ccc(Cl)cc2)n2c(=O)/c(=C\N(C)C)sc12`, the cell number change was -4.55%. Under setting [2], the AC50 was 0.651 µM [rising, partial curve]. For the same compound, the AC50 under setting [1] was 29.1 µM [rising, single point].
Regarding `COc1ccc(C2=NS(=O)(=O)N(C)C(C(=O)N3CCCCC3)=C2)cc1OC`, the cell number change was -14.4%.
`CCn1cc(/C=C(\NC(=O)c2ccc(C)cc2)C(=O)NCCCN2CCOCC2)c2ccccc21`: the cell number change is 23.2%. Further, the AC50 under setting [1] was 29.1 µM [rising, single point].
For `Cc1cc(C(=O)NC2CCCc3c2cnn3-c2cccc(C)c2C)c(C)o1` (stereo unspecified), the cell number change was -49.4%. Under setting [2], the AC50 is 0.206 µM [falling, partial curve]. For the same compound, under setting [1], the AC50 is 0.231 µM [falling, single point].
On to `COc1ccc(N(Cc2ccccc2)S(=O)(=O)c2cccc(C(=O)Nc3ncccc3C)c2)cc1`, for which the cell number change was determined as 30.1%. Moreover, the AC50 under setting [2] was 1.46 µM [rising, partial curve]. The AC50 under setting [1] is 23.1 µM [rising, partial curve].
As to `CCN(CC)C(=O)CSc1nc2ccccc2c(=O)n1OC`, the cell number change was -9%. Moreover, under setting [1], the AC50 is 3.66 µM [rising, single point].
In the case of `CN(C)CCCN(C(=O)c1ccc(Br)s1)c1nc2cc3c(cc2s1)OCO3`, the cell number change worked out at 8.9%. Moreover, under setting [1], the AC50 was 0.651 µM [rising, full curve, poor fit].
As for `O=C(CCN1CCOCC1)Nc1ccc(F)cc1`, the cell number change is -4.56%. The AC50 under setting [1] was 5.17 µM [rising, full curve].
Consider `Cc1ccc2nc(N3C(=O)C(O)=C(C(=O)c4ccco4)C3c3cccc(O)c3)sc2c1` (stereo unspecified), for which the cell number change was -21.1%.
`CC(=O)c1ccc(N2CCN(S(=O)(=O)c3ccc4c(c3)CC(C)N4C(C)=O)CC2)cc1` (stereo unspecified): the cell number change is -45.4%. For the same compound, the AC50 under setting [2] is 18.4 µM [falling, single point]. Moreover, the half-maximal activity concentration (AC50) under setting [1] is 11.6 µM [falling, partial curve].
On to `COc1ccc(NC(=O)N2CCCc3ccccc32)c(OC)c1`, for which the cell number change was 6.44%. Also, the AC50 under setting [2] is 4.11 µM [rising, single point].
For the compound `CCCn1c(CCNc2nc(-c3ccc(OC)cc3)cs2)nc2ccccc21`, the cell number change is 2.27%. Besides, under setting [1], the AC50 was 0.291 µM [rising, full curve, poor fit].
Regarding `COC(=O)C1=C(O)C2(C(=O)O)CC(C(=O)OC)=C(O)C(C(=O)O)(C1)C2`, the cell number change is -9.67%. The AC50 under setting [1] was 0.116 µM [falling, full curve, poor fit].
For the compound `COc1cc(NC(=O)Cc2cccs2)cc(OC)c1`, the cell number change was determined as 14.2%. The AC50 under setting [1] is 11.6 µM [rising, partial curve].
Consider `CCCCn1c(=O)n(Cc2cccc(F)c2)c(=O)c2c1ncn2Cc1ccco1`, for which the AC50 runs as follows: under setting [2], 6.51 µM [rising, single point]; under setting [1], 6.51 µM [rising, single point].
As for `CCOC(=O)C1CCN(C(=O)c2cc(S(=O)(=O)N3CCc4ccccc43)ccc2OC)CC1`, the cell number change is -75%. The AC50 under setting [2] is 29.1 µM [falling, single point].
As for `COc1ccc(NC(=O)COC(=O)CNC(=O)C2CCCCC2)cc1`, the cell number change was -16.9%. Also, the AC50 under setting [1] is 0.231 µM [falling, full curve, poor fit].
Regarding `Cc1ccc(NS(=O)(=O)c2cccc(C(=O)O)c2)c(C)c1`, the cell number change worked out at 0.0328%.
`O=C(Nc1ccc(Cl)cn1)c1cccc2ccccc12`: the cell number change was 2.55%. Further, the concentration at half-maximal activity (AC50) under setting [1] was 20.6 µM [rising, partial curve].
As for `COC(=O)/C=C1\S/C(=N/NC(=O)c2ccccc2)NC1=O`, the cell number change was -17%. For the same compound, the AC50 under setting [2] was 1.46 µM [falling, partial curve].
As for `COc1ccc(-c2nc(N3CCC(C)CC3)[nH]c(=O)c2C#N)cc1`, the cell number change is -40.7%. In addition, the AC50 under setting [2] is 32.6 µM [falling, single point].
In the case of `NS(=O)(=O)c1ccc(Cc2ncc(C(F)(F)F)cc2Cl)s1`, the cell number change amounted to 67.9%. Also, the AC50 under setting [2] was 20.6 µM [rising, single point].
Consider `O=C(CSc1nn(-c2ccccc2)c(=S)s1)Nc1ncccn1`, for which the cell number change amounted to 25.7%. The AC50 under setting [1] was 23.1 µM [rising, single point].
Turning to `COc1ccccc1N(CC(=O)N/N=C(\C)c1ccc(F)cc1)S(=O)(=O)c1ccccc1`, the cell number change came to 32%. Moreover, under setting [2], the AC50 is 7.31 µM [rising, partial curve, poor fit]. The AC50 under setting [1] was 2.59 µM [rising, partial curve].
For `O=C(Nc1cc2c(cc1Br)OCCO2)c1cccs1`, the cell number change was -2.14%. The concentration at half-maximal activity (AC50) under setting [2] was 0.461 µM [falling, single point].
Consider `CSc1ccc(CN2CCN(C(=O)c3ccc([N+](=O)[O-])cc3)CC2)cc1`, for which the cell number change is -36.2%. Also, the AC50 under setting [2] is 16.4 µM [falling, partial curve]. Moreover, the AC50 under setting [1] is 29.1 µM [falling, single point].
In the case of `O=C(N/N=C/c1ccc(Br)s1)Nc1ccccc1`, the cell number change is -26.1%. The AC50 under setting [1] is 0.731 µM [falling, full curve].
For `CO/N=C/C1C(=O)NN=C1c1ccccc1` (stereo unspecified), the cell number change stood at 77%. Moreover, the AC50 under setting [2] was 13 µM [rising, partial curve].
